Experimental data published in paper PMC7674640.

By UniProt entry, the sequences of proteins in these tests, tags left out. Residues count along the entry.
UniProt Q9SI75, residues 81-783: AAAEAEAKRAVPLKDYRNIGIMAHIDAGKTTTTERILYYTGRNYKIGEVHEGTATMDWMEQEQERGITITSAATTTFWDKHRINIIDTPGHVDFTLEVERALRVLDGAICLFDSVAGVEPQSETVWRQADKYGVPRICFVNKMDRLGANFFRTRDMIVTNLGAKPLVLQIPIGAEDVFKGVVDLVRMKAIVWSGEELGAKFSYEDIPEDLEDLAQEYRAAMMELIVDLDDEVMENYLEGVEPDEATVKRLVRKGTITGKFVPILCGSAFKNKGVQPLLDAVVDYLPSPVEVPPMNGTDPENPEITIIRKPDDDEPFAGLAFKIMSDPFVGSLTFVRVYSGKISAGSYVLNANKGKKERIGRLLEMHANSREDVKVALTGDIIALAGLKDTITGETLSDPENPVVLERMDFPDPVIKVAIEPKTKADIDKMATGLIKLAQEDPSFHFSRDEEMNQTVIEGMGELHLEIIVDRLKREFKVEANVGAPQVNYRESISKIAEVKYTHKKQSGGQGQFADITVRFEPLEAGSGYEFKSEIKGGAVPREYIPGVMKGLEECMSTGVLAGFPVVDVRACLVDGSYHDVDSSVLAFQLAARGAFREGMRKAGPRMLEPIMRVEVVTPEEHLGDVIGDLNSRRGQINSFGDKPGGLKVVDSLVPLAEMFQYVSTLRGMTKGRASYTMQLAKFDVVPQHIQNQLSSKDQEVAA

B1: CP29A (protein, UniProt Q43349 66-342)
chain: NVAVSSDFEVEEDDMFADGDDSAPVERNSFSPDLKLFVGNLSFNVDSAQLAQLFESAGNVEMVEVIYDKVTGRSRGFGFVTMSTAAEVEAAAQQFNGYEFEGRPLRVNAGPPPPKREESFSRGPRSGGYGSERGGGYGSERGGGYGSERGGGYGSERGGGYGSQRSGGGYGGSQRSSYGSGSGSGSGSGSGNRLYVGNLSWGVDDMALENLFNEQGKVVEARVIYDRDSGRSKGFGFVTLSSSQEVQKAINSLNGADLDGRQIRVSEAEARPPRGQF
B2: Rubisco activase (protein, UniProt P10896 59-474)
chain: AVKEDKQTDGDRWRGLAYDTSDDQQDITRGKGMVDSVFQAPMGTGTHHAVLSSYEYVSQGLRQYNLDNMMDGFYIAPAFMDKLVVHITKNFLTLPNIKVPLILGIWGGKGQGKSFQCELVMAKMGINPIMMSAGELESGNAGEPAKLIRQRYREAADLIKKGKMCCLFINDLDAGAGRMGGTTQYTVNNQMVNATLMNIADNPTNVQLPGMYNKEENARVPIICTGNDFSTLYAPLIRDGRMEKFYWAPTREDRIGVCKGIFRTDKIKDEDIVTLVDQFPGQSIDFFGALRARVYDDEVRKFVESLGVEKIGKRLVNSREGPPVFEQPEMTYEKLMEYGNMLVMEQENVKRVQLAETYLSQAALGDANADAIGRGTFYGKGAQQVNLPVPEGCTDPVAENFDPTARSDDGTCVYNF
B3: FNR2 (At1g20020) (enzyme, UniProt Q8W493 58-369)
chain: ITTETDTPTPAKKVEKVSKKNEEGVIVNRYRPKEPYTGKCLLNTKITADDAPGETWHMVFSHQGEIPYREGQSVGVIADGIDKNGKPHKVRLYSIASSALGDLGNSETVSLCVKRLVYTNDQGETVKGVCSNFLCDLAPGSDVKLTGPVGKEMLMPKDPNATVIMLATGTGIAPFRSFLWKMFFEKHDDYKFNGLAWLFLGVPTTSSLLYQEEFDKMKAKAPENFRVDYAISREQANDKGEKMYIQTRMAQYAAELWELLKKDNTFVYMCGLKGMEKGIDDIMVSLAANDGIDWFDYKKQLKKAEQWNVEVY
B4: PORC (At1g03630) (enzyme, UniProt O48741 68-401)
chain: QTVTATPPANEASPEQKKTERKGTAVITGASSGLGLATAKALADTGKWHVIMACRNFLKAEKAARSVGMSKEDYTVMHLDLASLESVKQFVENFRRTEQPLDVLVCNAAVYQPTAKEPSFTAEGFEISVGTNHLGHFLLSRLLLDDLKKSDYPSKRMIIVGSITGNTNTLAGNVPPKANLGDLRGLASGLNGQNSSMIDGGEFDGAKAYKDSKVCNMLTMQELHRRYHEETGVTFASLYPGCIATTGLFREHIPLFRLLFPPFQKYITKGYVSEEEAGKRLAQVVSDPSLGKSGVYWSWNNNSSSFENQLSKEASDAEKAKKLWEVSEKLVGLA
B5: DEAD box RNA helicase (RH3) (enzyme, UniProt Q8L7S8 61-748)
chain: AVATPNSVLSEEAFKSLGLSDHDEYDLDGDNNNVEADDGEELAISKLSLPQRLEESLEKRGITHLFPIQRAVLVPALQGRDIIARAKTGTGKTLAFGIPIIKRLTEEAGDYTAFRRSGRLPKFLVLAPTRELAKQVEKEIKESAPYLSTVCVYGGVSYTIQQSALTRGVDVVVGTPGRIIDLIEGRSLKLGEVEYLVLDEADQMLAVGFEEAVESILENLPTKRQSMLFSATMPTWVKKLARKYLDNPLNIDLVGDQDEKLAEGIKLYAIATTSTSKRTILSDLITVYAKGGKTIVFTQTKRDADEVSLALSNSIATEALHGDISQHQRERTLNAFRQGKFTVLVATDVASRGLDIPNVDLVIHYELPNDPETFVHRSGRTGRAGKEGSAILMHTSSQKRTVRSLERDVGCHFEFISPPTVGDLLESSADQVVATLNGVHPDSIKFFSATAQKLYEEKGTDALAAALAHLSGFSQPPSSRSLLSHEKGWVTLQLIRDPTNARGFLSARSVTGFLSDLYRTAADEVGKIFLIADDRIQGAVFDLPEEIAKELLEKDVPEGNSLSMITKLPPLQDDGPSSDNYGRFSSRDRMPRGGGGSRGSRGGRGGSSRGRDSWGGDDDRGSRRSSGGGSSWSRGGSSSRGSSDDWLIGGRSSSSSRAPSRERSFGGSCFICGKSGHRATDCPDKRGF
B6: heat shock protein 90-5 (protein, UniProt Q9SIF2 61-780)
chain: CDAAVAEKETTEEGSGEKFEYQAEVSRLLDLIVHSLYSHKEVFLRELVSNASDALDKLRFLSVTEPSLLGDGGDLEIRIKPDPDNGTITITDTGIGMTKEELIDCLGTIAQSGTSKFLKALKENKDLGADNGLIGQFGVGFYSAFLVAEKVVVSTKSPKSDKQYVWESVADSSSYLIREETDPDNILRRGTQITLYLREDDKYEFAESTRIKNLVKNYSQFVGFPIYTWQEKSRTIEVEEDEPVKEGEEGEPKKKKTTKTEKYWDWELANETKPLWMRNSKEVEKGEYNEFYKKAFNEFLDPLAHTHFTTEGEVEFRSILYIPGMGPLNNEDVTNPKTKNIRLYVKRVFISDDFDGELFPRYLSFVKGVVDSDDLPLNVSREILQESRIVRIMRKRLIRKTFDMIQEISESENKEDYKKFWENFGRFLKLGCIEDTGNHKRITPLLRFFSSKNEEELTSLDDYIENMGENQKAIYYLATDSLKSAKSAPFLEKLIQKDIEVLYLVEPIDEVAIQNLQTYKEKKFVDISKEDLELGDEDEVKDREAKQEFNLLCDWIKQQLGDKVAKVQVSNRLSSSPCVLVSGKFGWSANMERLMKAQALGDTSSLEFMRGRRILEINPDHPIIKDLNAACKNAPESTEATRVVDLLYDTAIISSGFTPDSPAELGNKIYEMMAMAVGGRWGRVEEEEESSTVNEGDDKSGETEVVEPSEVRAESDPWQD
B7: RIP1 (MORF 8) (protein, UniProt Q9LKA5 57-395)
chain: GGLVSVKGLSTQATSSSLNDPNPNWSNRPPKETILLDGCDFEHWLVVVEPPQGEPTRDEIIDSYIKTLAQIVGSEDEARMKIYSVSTRCYYAFGALVSEDLSHKLKELSNVRWVLPDSYLDVRNKDYGGEPFIDGKAVPYDPKYHEEWIRNNARANERNRRNDRPRNNDRSRNFERRRENMAGGPPPQRPPMGGPPPPPHIGGSAPPPPHMGGSAPPPPHMGQNYGPPPPNNMGGPRHPPPYGAPPQNNMGGPRPPQNYGGTPPPNYGGAPPANNMGGAPPPNYGGGPPPQYGAVPPPQYGGAPPQNNNYQQQGSGMQQPQYQNNYPPNRDGSGNPYQG
B8: GUN5 (magnesium chelatase subunit) (protein, UniProt Q9FNB0 50-1381)
chain: AVSGNGLFTQTNPEVRRIVPIKRDNVPTVKIVYVVLEAQYQSSLSEAVQSLNKTSRFASYEVVGYLVEELRDKNTYNNFCEDLKDANIFIGSLIFVEELAIKVKDAVEKERDRMDAVLVFPSMPEVMRLNKLGSFSMSQLGQSKSPFFQLFKRKKQGSAGFADSMLKLVRTLPKVLKYLPSDKAQDARLYILSLQFWLGGSPDNLQNFVKMISGSYVPALKGVKIEYSDPVLFLDTGIWHPLAPTMYDDVKEYWNWYDTRRDTNDSLKRKDATVVGLVLQRSHIVTGDDSHYVAVIMELEARGAKVVPIFAGGLDFSGPVEKYFVDPVSKQPIVNSAVSLTGFALVGGPARQDHPRAIEALKKLDVPYLVAVPLVFQTTEEWLNSTLGLHPIQVALQVALPELDGAMEPIVFAGRDPRTGKSHALHKRVEQLCIRAIRWGELKRKTKAEKKLAITVFSFPPDKGNVGTAAYLNVFASIFSVLRDLKRDGYNVEGLPENAETLIEEIIHDKEAQFSSPNLNVAYKMGVREYQDLTPYANALEENWGKPPGNLNSDGENLLVYGKAYGNVFIGVQPTFGYEGDPMRLLFSKSASPHHGFAAYYSYVEKIFKADAVLHFGTHGSLEFMPGKQVGMSDACFPDSLIGNIPNVYYYAANNPSEATIAKRRSYANTISYLTPPAENAGLYKGLKQLSELISSYQSLKDTGRGPQIVSSIISTAKQCNLDKDVDLPDEGLELSPKDRDSVVGKVYSKIMEIESRLLPCGLHVIGEPPSAMEAVATLVNIAALDRPEDEISALPSILAECVGREIEDVYRGSDKGILSDVELLKEITDASRGAVSAFVEKTTNSKGQVVDVSDKLTSLLGFGINEPWVEYLSNTKFYRANRDKLRTVFGFLGECLKLVVMDNELGSLMQALEGKYVEPGPGGDPIRNPKVLPTGKNIHALDPQAIPTTAAMASAKIVVERLVERQKLENEGKYPETIALVLWGTDNIKTYGESLGQVLWMIGVRPIADTFGRVNRVEPVSLEELGRPRIDVVVNCSGVFRDLFINQMNLLDRAIKMVAELDEPVEQNFVRKHALEQAEALGIDIREAATRVFSNASGSYSANISLAVENSSWNDEKQLQDMYLSRKSFAFDSDAPGAGMAEKKQVFEMALSTAEVTFQNLDSSEISLTDVSHYFDSDPTNLVQSLRKDKKKPSSYIADTTTANAQVRTLSETVRLDARTKLLNPKWYEGMMSSGYEGVREIEKRLSNTVGWSATSGQVDNWVYEEANSTFIQDEEMLNRLMNTNPNSFRKMLQTFLEANGRGYWDTSAENIEKLKELYSQVEDKIEGIDR
B9: CHLI1 (magnesium chelatase subunit) (protein, UniProt P16127 61-424)
chain: VMNVATEINSTEQVVGKFDSKKSARPVYPFAAIVGQDEMKLCLLLNVIDPKIGGVMIMGDRGTGKSTTVRSLVDLLPEINVVAGDPYNSDPIDPEFMGVEVRERVEKGEQVPVIATKINMVDLPLGATEDRVCGTIDIEKALTEGVKAFEPGLLAKANRGILYVDEVNLLDDHLVDVLLDSAASGWNTVEREGISISHPARFILIGSGNPEEGELRPQLLDRFGMHAQVGTVRDADLRVKIVEERARFDSNPKDFRDTYKTEQDKLQDQISTARANLSSVQIDRELKVKISRVCSELNVDGLRGDIVTNRAAKALAALKGKDRVTPDDVATVIPNCLRHRLRKDPLESIDSGVLVSEKFAEIFS
B10: GUN4 (protein, UniProt Q9LX31 70-265)
chain: ASATTAETATIFDVLENHLVNQNFRQADEETRRLLIQISGEAAVKRGYVFFSEVKTISPEDLQAIDNLWIKHSDGRFGYSVQRKIWLKVKKDFTRFFVKVEWMKLLDTEVVQYNYRAFPDEFKWELNDETPLGHLPLTNALRGTQLLKCVLSHPAFATADDNSGETEDELNRGVAVAKEQAGVGADKRVFKTNYSF
B11: CHLI2 (At5g45930) (protein, UniProt Q5XF33 56-418)
chain: VMNVATEINSVEQAKKIDSKESARPVYPFAAIVGQDEMKLCLLLNVIDPKIGGVMIMGDRGTGKSTTVRSLVDLLPEITVVSGDPYNSDPRDPECMGKEVREKVQKGEELSVIETKINMVDLPLGATEDRVCGTIDIEKALTEGVKAFEPGLLAKANRGILYVDEVNLLDDHLVDVLLDSAASGWNTVEREGISISHPARFILIGSGNPEEGELRPQLLDRFGMHAQVGTVRDAELRVKIVEERARFDSNPKEFRETYQEEQLKLQEQITTARSNLSAVQIDQDLKVKISKVCAELDVDGLRGDMVINRAARALAALQGRDQVTAEDVGIVIPNCLRHRLRKDPLESMDSGILVTEKFYEVFT
B12: PORB (enzyme, UniProt P21218 67-401)
chain: QTAATSSPTVTKSVDGKKTLRKGNVVVTGASSGLGLATAKALAETGKWNVIMACRDFLKAERAAKSVGMPKDSYTVMHLDLASLDSVRQFVDNFRRTETPLDVLVCNAAVYFPTAKEPTYSAEGFELSVATNHLGHFLLARLLLDDLKKSDYPSKRLIIVGSITGNTNTLAGNVPPKANLGDLRGLAGGLNGLNSSAMIDGGDFDGAKAYKDSKVCNMLTMQEFHRRFHEETGVTFASLYPGCIASTGLFREHIPLFRALFPPFQKYITKGYVSETESGKRLAQVVSDPSLTKSGVYWSWNNASASFENQLSEEASDVEKARKVWEISEKLVGLA

Biological target: SCO1-GFP (snowy cotyledon 1 fused to GFP) (Arabidopsis thaliana) (UniProt Q9SI75)
Test: affinity purification with mass spectrometry; plastidial stress granules (cpSG) from heat/dark-treated (42°C, 30 min) 35S:SCO1-GFP seedlings enriched by differential centrifugation, then purified with anti-GFP rabbit IgG and protein A Dynabeads; lysis buffer 50 mM Tris-HCl pH 7.4, 100 mM potassium acetate, 2 mM magnesium acetate, 0.5% NP-40; hits absent from or enriched (fold change > 2, p < 0.05) against isolates of control seedlings

Question: How did the binding turn out when B1 was run?
Answer: The binding was “binds”.

Question: Which binding does the source give for B2 here?
Answer: Its binding is “binds”.

Question: Which binding does the source give for B3 here?
Answer: The binding was “binds”.

Question: With B4 as the binder, how does the binding read?
Answer: Its binding is “binds”.

Question: With B5 as the binder, how does the binding read?
Answer: Its binding is “binds”.

Question: B6 was tested. Which binding did it give?
Answer: The binding was “binds”.

Question: With B7 as the binder, how does the binding read?
Answer: Its binding is “binds”.

Question: Which binding does the source give for B8 here?
Answer: Its binding is “binds”.

Question: B9 was tested. Which binding did it give?
Answer: Its binding is “binds”.

Question: With B10 as the binder, how does the binding read?
Answer: Its binding is “binds”.

Question: For B11, which binding is on record?
Answer: Its binding is “binds”.

Question: How did the binding turn out when B12 was run?
Answer: Its binding is “binds”.

No constants are given. Whether binding was seen depends on the method and setting. In cells and extracts the contact can be indirect. A yes stands for co-enrichment or nearness to the bait. Other partners may have been found.
